In paper PMC3322157:

Experiments:
Histidine-tagged SCHAD [1] = target: T1, Histidine-tagged SCHAD (UniProt Q16836); test: condition: only skeletal muscle of SCHAD knockout mice; affinity purification with mass spectrometry; as a2, homogenates of tissues from SCHAD knockout mice only (liver, brain, skeletal muscle as named for each row); only the target purified
T1 sequence: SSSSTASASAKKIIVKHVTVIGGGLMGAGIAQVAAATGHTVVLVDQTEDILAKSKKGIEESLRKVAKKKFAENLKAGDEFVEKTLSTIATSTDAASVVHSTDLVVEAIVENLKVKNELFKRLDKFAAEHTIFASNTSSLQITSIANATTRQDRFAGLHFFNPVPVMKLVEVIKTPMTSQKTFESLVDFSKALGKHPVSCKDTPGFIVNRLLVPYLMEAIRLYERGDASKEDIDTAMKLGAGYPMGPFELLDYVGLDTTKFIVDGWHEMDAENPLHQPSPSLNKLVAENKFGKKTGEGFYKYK

Histidine-tagged SCHAD [2] = target: T1, Histidine-tagged SCHAD; test: affinity purification with mass spectrometry; His-tagged SCHAD linked to agarose beads (AminoLink Plus, cyanoborohydride); homogenates of mouse liver, muscle, heart, kidney and brain (wild type and SCHAD knockout) in 50 mM Tris-HCl, 0.1% Triton-X 100, 1 mg/mL, 4°C overnight; eluted proteins identified by LC-MS/MS, BSA beads as control; only the target purified

binding (Histidine-tagged SCHAD [1]): no binding
binding (Histidine-tagged SCHAD [2]): binds
B1: medium chain acylCoA dehydrogenase (protein, UniProt P45952 26-421)
chain: KAAHKQEPGLGFSFELTEQQKEFQATARKFAREEIIPVAPEYDKSGEYPFPLIKRAWELGLINAHIPESCGGLGLGTFDACLITEELAYGCTGVQTAIEANSLGQMPVILAGNDQQKKKYLGRMTEQPMMCAYCVTEPSAGSDVAAIKTKAEKKGDEYVINGQKMWITNGGKANWYFLLARSNPDPKVPASKAFTGFIVEADTPGIHIGKKELNMGQRCSDTRGIAFEDVRVPKENVLIGEGAGFKIAMGAFDRTRPTVAAGAVGLAQRALDEATKYALDRKTFGKLLVEHQGVSFLLAEMAMKVELARLSYQRAAWEVDSGRRNTYYASIAKAFAGDIANQLATDAVQIFGGYGFNTEYPVEKLMRDAKIYQIYEGTAQIQRLIIAREHIEKYKN

Results are given in words; binding and its absence hold for the method and conditions named. Binding seen in cells or lysates may run through a third protein. Here binding means that the protein was enriched with, or labelled near, the bait; the list need not be complete. For some assays here: A no says only that the protein was not detected with the bait. Tags and fused reporters may be left off the sequences shown.
